The structures given here were assigned with low confidence; some may be wrong.
Molecular target: human olfactory receptor OR7D4 (Homo sapiens, UniProt Q8NG98)
Assay: OR7D4 luciferase gene reporter assay (antagonism of agonist-induced activation)
Details: read-out: IC50 (micromolar), dose-response, half decrease of the luciferase production obtained without antagonist, androstenone at 31.6 micromolar
Procedure: Cells were maintained in minimal essential medium (EMEM, Lonza) containing 10% fetal bovine serum (M10). HEK293T stably expressing olfactory chaperone proteins from the RTP family as described in WO 2006/002161 (introduced here as a reference) were generated by transfecting HEK293T cells with expression vector containing the chaperone gene sequences and a resistance gene to puromycin, using Lipofectamine 2000. A recombinant cell population was selected by adding 10 μg/ml of puromycin into the culture medium. Monoclonal populations were further obtained by limit dilution procedure. […]
Briefly, cells were plated on poly-D-lysine-coated 96-well plates (BD Bioscience, Erembodegem-Dorp, Belgium) and transfected with a plasmid containing CRE-luciferase and a plasmid containing OR7D4. Sixteen hours after transfection, the culture medium was replaced by serum-free EMEM containing the tested ligands at a determined concentration. After four hours of incubation at 37° C. degree, cells were lysed and processed for luminescence measurement according to the manufacturer's protocols. Luminescence emission was recorded on a Spectra Max M5 reader (Molecular Devices, Sunnyvale, Calif.). Results were expressed as percentage of the response induced by 10 μM of the adenylate cyclase activator Forskolin. […]

By UniProt entry, the sequences of proteins in these tests, tags left out.
UniProt Q8NG98, whole entry: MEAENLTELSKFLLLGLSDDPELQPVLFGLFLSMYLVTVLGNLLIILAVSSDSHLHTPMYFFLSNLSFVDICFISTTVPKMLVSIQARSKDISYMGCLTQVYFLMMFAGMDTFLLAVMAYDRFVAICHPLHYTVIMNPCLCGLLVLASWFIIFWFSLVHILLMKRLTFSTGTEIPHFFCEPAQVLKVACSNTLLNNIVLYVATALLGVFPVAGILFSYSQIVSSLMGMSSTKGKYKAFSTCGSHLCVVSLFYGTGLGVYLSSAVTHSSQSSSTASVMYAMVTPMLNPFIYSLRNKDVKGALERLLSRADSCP

Compound	IC50 [µM]
CCCCCC(=C\c1ccccc1)/C=C(\C)C(N)=O	11
CCCCCC(=C\c1ccccc1)/C=C(\C)C(=O)OCC	1
